These results are taken from PubChem BioAssay AID1508612.

A value given as a limit tells only on which side of the number the result lay.

A short description of this data set: passive permeability, PAMPA, ADME assay (AID 1508612). As to conditions: pH 7.4, 30.0 min, 50.0 µM. (In general: The PAMPA barrier holds no transporters, so it reflects passive diffusion.)

For `CCNC(=O)C[C@@H]1N=C(c2ccc(Cl)cc2)c2cc(OC)ccc2-n2c(C)nnc21`, the Papp came to 334 ×10⁻⁶ cm/s.

The compound `COc1ccc2[nH]c3c(C)c4ccncc4c(C)c3c2c1` showed a Papp of more than 1000 ×10⁻⁶ cm/s.

One may read the Papp as a coefficient for how fast a substance crosses the barrier. A higher Papp goes with ready permeation.
